The experiment deals with Cynomolgus monkey. To be noted: Macaca fascicularis; at 10 mg/kg.

In ChEMBL document CHEMBL3352714, “Synthesis, in Vitro Covalent Binding Evaluation, and Metabolism of (14)C-Labeled Inhibitors of 11β-HSD1” (ACS Med Chem Lett, 2014) one finds inhibition data, which are given here for one compound.

In the case of `C[C@](O)(c1ccc(S(=O)(=O)c2ccc(C#N)cc2Cl)cc1)C(F)(F)F`, the inhibition result was “Dose-dependent effect”.
